# Patent US7618958B2, “Stereospecific anxiolytic and anticonvulsant agents with reduced muscle-relaxant, sedative-hypnotic and ataxic effects” (WISYS Technology Foundation, Inc., priority 2004, dated 2009)
# Some entries share one result that the patent states for a list of compounds. At least one compound was matched to its structure with a doubt left.
# Test system: Male Sprague-Dawley rats
# Experiment: Situational anxiety model in rats (defensive withdrawal)
# Type: in vivo, rat
# Details: PO
row,Structure (SMILES),anxiolytic effects in the situational anxiety test at doses lower than doses producing sedative and ataxic effects [fold]
1,"C#Cc1ccc2c(c1)C(c1ccccc1Cl)=NCc1nnc(C)n1-2 [XLi-JY-DMH, 8-Acetyleno-5-(2′-chlorophenyl)-1-methyl-4H-s-triazolo-[4,3-a]-1,4-benzodiazepine]",> 100
2,"C#Cc1ccc2c(c1)C(c1ccccc1)=NCC(=O)N2C [QH-ii-066, 1-Methyl-7-acetyleno-5-phenyl-1,3-dihydro-benzo [e]-1,4-diazepin-2-one]",> 100
3,"C#Cc1ccc2c(c1)C(c1ccccc1)=NCc1c(C(=O)OCC)ncn1-2 [XHe-ii-053, Ethyl 8-acetylenyl-6-phenyl-4H-benzo[f]imidazo[1,5-a][1,4]diazepine-3-carboxylate]",> 100
